Literature values in patent US8440210B2, “Stabilized pharmaceutical product” (Takeda GmbH, priority 2003, dated 2013).

Details: drug substance

## COc1ccc(CC(C)NCC(O)c2ccc(O)c(NC=O)c2)cc1 (stereo not shown) [Formoterol]
  stable at ambient conditions for up to: up to two
